US10294275B2 (Yale University, priority 2012, dated 2019)

Assay: peptide synthesis
Conditions: late stage modification step

Q: With tribromovancomycin as the substance, how does the step yield read?
A: 35%
